Results: paper PMC7019167, “Development of a high affinity Anticalin® directed against human CD98hc for theranostic applications” (Theranostics, 2020)
Results are given in words; binding and its absence hold for the method and conditions named. Some entries that bind do so weakly or less than the wild type. Blank lines part the entries; values can stand above or below the molecule they belong to.

Chains of the proteins cited; added tags and fusions are not shown. Residues count along the entry.
UniProt P08195, residues 212-630: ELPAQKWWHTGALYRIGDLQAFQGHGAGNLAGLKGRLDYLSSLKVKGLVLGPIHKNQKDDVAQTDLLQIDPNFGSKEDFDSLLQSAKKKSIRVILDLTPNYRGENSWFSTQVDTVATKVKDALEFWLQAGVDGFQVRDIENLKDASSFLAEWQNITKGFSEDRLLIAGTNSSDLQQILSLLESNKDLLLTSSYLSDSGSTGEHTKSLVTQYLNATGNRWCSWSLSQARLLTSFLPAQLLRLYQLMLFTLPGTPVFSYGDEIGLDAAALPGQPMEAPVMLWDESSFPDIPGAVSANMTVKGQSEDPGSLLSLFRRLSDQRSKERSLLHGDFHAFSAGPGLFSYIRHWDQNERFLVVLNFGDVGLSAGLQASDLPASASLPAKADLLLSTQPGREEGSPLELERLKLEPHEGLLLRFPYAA

How the values were obtained:
[1] = biological target: lipocalin variant D11.4 displayed on E. coli (human) (UniProt P80188); assay: flow cytometry on cells; single clone FACS of E. coli displaying the lipocalin variant (EspP fusion) after six BSD selection cycles, incubated with 1 nM biotinylated hCD98hcED; detection with streptavidin/phycoerythrin; mean PE fluorescence; only the binder purified
[2] = biological target: lipocalin variant D11.7 displayed on E. coli (human) (UniProt P80188); assay: as above
[3] = biological target: lipocalin variant D11.9 displayed on E. coli (human) (UniProt P80188); assay: as above
[4] = biological target: T1, recombinant wild type lipocalin 2 (wtLcn2), soluble (human), P80188; assay: SEC; analytical SEC of the purified soluble lipocalin variants in comparison with wtLcn2; both purified; conditions: remark: other sources report otherwise
T1 chain: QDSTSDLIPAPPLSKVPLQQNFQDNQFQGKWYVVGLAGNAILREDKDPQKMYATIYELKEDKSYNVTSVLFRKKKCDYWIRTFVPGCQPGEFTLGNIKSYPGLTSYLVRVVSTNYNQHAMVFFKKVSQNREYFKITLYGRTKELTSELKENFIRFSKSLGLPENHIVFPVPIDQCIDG

binding [1]: binds
binding [2]: binds
binding [3]: binds
Molecule: unglycosylated human CD98hc ectodomain (hCD98hcED), monobiotinylated (from UniProt P08195-2 111-529) (domain or fragment)

binding [4]: no binding
B1: recombinant wild type lipocalin 2 (wtLcn2), soluble, P80188 21-198 (protein)
chain: T1 chain
